Positions count from the first letter of the chain named. These are yes or no findings as the source states them, for the method shown. Some entries that bind do so weakly or less than the wild type. One block for each binder: values may come before it.
Key:
[1] = molecular target: fusion protein of GST and MG10 (Gln213 to Ala231 in the amino acid sequence of human Mpl) (human) (UniProt P40238); experiment: Biacore on immobilised MG10-GST
[2] = molecular target: fusion protein of GST and MG10 (Gln213 to Ala231 in the amino acid sequence of human Mpl) (human) (UniProt P40238); experiment: Biacore on immobilised MG10-GST (recalled in Example 2-4)
[3] = molecular target: fusion protein of GST and MG10 (Gln213 to Ala231 in the amino acid sequence of human Mpl) (human) (UniProt P40238); experiment: affinity column with immobilised MG10-GST fusion protein

B1: hVB22B u2-wz4 sc(Fv)2 peak 1 (bivalent scFv type structural isomer) (scFv)
chain: QVQLVQSGPEVKKPGASVKVSCKASGYTFTNSWMNWVRQRPGKGLEWIGRIYPGDGETIYNGKFRVRVTITADESTSTAYMQLSSLRSEDTAVYYCARGYDDYSFAYWGQGTTVTVSSGGGGSGGGGSGGGGSDIVMTQSPLSLPVTPGEPASISCRSSKSLLHSNGNTYLYWFLQKPGQSPQLLIYRMSNLASGVPDRFSGSGSGTDFTLKISRVEAEDVGVYYCMQHIEYPFTFGQGTKLEIKGGGGSGGGGSGGGGSQVQLVQSGPEVKKPGASVKVSCKASGYTFTNSWMNWVRQRPGKGLEWIGRIYPGDGETIYNGKFRVRVTITADESTSTAYMQLSSLRSEDTAVYYCARGYDDYSFAYWGQGTTVTVSSGGGGSGGGGSGGGGSDIVMTQSPLSLPVTPGEPASISCRSSKSLLHSNGNTYLYWFLQKPGQSPQLLIYRMSNLASGVPDRFSGSGSGTDFTLKISRVEAEDVGVYYCMQHIEYPFTFGQGTKLEIK
binding [1]: binds | binding [2]: binds

B2: modified hVB22B u2-wz4(v1) sc(Fv)2 (scFv)
chain: B1 chain with Q39E, Q176E, Q299K, Q436K
binding [3]: binds

B4: humanized anti-human Mpl antibody hVB22B u2-wz4 sc(Fv)2 (bulk, before separation of the structural isomers) (scFv)
chain: B1 chain
binding [3]: binds

Continued, values first:

binding [3]: binds
B3: modified hVB22B u2-wz4(v3) sc(Fv)2 (scFv)
chain: B1 chain with Q39E, Q176K, Q299K, Q436E

binding [1]: binds | binding [2]: binds
B5: hVB22B u2-wz4 sc(Fv)2 peak 2 (single chain diabody type structural isomer) (scFv)
chain: B1 chain
